# The supplement of paper PMC6411743
# ± gives the standard deviation of the averaged measurements. This is a selection; strong and weak results do not stand in their true shares.
# Tests used:
# Test in all cases: NP40-soluble protein abundance relative to vehicle (solubility fold change) (ratio); higher = more soluble protein in presence of ATP
# [1] = molecular target: T1, UniProt Q9UJS0 and related entries
# T1 sequence (whole entry): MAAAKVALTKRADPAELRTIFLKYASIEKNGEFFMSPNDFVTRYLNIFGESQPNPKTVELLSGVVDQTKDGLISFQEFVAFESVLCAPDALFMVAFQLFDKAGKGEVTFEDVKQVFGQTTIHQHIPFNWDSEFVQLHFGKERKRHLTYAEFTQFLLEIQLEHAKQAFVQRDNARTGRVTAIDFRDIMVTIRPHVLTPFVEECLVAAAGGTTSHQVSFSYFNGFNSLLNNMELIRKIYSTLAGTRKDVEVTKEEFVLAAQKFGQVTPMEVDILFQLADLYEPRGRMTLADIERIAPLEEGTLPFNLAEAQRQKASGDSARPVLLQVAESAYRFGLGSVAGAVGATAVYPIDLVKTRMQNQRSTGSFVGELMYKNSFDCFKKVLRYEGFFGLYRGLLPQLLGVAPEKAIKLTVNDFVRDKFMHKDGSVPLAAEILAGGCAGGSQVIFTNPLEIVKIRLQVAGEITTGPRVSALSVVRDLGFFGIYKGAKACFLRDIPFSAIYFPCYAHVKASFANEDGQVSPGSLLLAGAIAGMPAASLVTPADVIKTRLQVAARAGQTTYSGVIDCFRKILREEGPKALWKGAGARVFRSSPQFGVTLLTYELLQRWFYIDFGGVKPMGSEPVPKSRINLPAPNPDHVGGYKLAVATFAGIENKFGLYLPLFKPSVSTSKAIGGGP
# Summary of the method: (§1)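 Jurkat crude lysate (Dounce-homogenised) was treated with eight concentrations from 0.1 to 10 mM for 10 min at room temperature, then 3 min at 37 °C. It was solubilised with 0.8% NP40 and benzonase (60 min, 4 °C) and ultracentrifuged, and the supernatant was TMT-labelled for LC-MS/MS. Intensities were vsn-normalised, and the value is the fold change against the NP40-processed vehicle per replicate, from three independent experiments.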
# UniProt Q9ULD0 = molecular target: T2, UniProt Q9ULD0
# T2 sequence (whole entry): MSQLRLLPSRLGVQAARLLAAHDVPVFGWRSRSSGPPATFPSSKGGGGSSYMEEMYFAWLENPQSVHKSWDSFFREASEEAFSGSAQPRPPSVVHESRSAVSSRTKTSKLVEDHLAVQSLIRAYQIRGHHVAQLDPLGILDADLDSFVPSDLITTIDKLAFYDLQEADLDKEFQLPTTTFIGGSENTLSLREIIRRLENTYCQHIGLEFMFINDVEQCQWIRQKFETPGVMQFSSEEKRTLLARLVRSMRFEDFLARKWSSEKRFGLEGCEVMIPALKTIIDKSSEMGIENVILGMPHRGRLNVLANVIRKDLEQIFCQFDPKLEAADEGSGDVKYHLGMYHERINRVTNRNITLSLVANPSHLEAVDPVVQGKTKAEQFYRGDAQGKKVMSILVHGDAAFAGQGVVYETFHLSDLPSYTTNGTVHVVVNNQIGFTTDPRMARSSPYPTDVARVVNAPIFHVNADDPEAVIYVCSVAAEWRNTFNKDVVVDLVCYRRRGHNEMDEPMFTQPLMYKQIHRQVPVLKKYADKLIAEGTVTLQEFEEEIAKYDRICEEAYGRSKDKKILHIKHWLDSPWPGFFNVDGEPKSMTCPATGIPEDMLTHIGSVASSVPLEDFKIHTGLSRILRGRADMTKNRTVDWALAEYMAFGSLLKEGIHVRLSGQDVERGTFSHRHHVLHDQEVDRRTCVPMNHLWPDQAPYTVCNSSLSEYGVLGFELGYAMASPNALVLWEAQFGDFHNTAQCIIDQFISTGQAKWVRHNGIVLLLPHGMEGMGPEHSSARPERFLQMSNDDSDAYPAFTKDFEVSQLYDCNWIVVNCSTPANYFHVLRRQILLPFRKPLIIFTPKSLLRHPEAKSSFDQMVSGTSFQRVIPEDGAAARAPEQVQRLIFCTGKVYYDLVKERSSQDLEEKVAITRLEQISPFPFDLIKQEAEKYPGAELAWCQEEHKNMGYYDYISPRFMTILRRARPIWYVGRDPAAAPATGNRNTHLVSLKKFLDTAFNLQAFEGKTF
# Summary of the method: as §1
# [2] = molecular target: T3, UniProt Q9UPU7 and related entries
# T3 sequence (whole entry): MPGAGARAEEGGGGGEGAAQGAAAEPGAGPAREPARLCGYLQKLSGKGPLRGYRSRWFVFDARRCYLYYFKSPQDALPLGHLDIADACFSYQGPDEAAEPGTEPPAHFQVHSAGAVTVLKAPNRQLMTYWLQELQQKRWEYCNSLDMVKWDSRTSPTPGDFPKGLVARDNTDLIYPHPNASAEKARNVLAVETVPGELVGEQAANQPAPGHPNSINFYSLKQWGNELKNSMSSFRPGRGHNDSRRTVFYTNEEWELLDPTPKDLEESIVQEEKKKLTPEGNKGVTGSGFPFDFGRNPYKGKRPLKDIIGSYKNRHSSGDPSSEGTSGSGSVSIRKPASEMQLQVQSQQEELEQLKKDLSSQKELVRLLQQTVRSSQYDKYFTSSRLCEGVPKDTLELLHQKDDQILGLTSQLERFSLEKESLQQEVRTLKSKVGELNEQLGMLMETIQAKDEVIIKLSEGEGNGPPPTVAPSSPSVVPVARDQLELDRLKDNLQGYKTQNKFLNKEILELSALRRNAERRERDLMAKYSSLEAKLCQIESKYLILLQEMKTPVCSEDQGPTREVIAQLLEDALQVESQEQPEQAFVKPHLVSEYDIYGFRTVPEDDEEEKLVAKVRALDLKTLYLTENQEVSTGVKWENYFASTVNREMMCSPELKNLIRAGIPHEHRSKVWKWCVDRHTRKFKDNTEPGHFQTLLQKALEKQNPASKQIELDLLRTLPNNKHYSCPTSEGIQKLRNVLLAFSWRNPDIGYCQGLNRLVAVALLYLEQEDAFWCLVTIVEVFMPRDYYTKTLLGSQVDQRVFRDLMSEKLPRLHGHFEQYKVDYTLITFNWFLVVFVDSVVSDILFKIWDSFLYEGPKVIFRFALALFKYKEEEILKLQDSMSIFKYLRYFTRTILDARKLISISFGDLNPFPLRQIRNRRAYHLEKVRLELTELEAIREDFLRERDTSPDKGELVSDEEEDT
# Summary of the method: as §1
# [3] = molecular target: T4, UniProt Q9Y223 and related entries
# T4 sequence (whole entry): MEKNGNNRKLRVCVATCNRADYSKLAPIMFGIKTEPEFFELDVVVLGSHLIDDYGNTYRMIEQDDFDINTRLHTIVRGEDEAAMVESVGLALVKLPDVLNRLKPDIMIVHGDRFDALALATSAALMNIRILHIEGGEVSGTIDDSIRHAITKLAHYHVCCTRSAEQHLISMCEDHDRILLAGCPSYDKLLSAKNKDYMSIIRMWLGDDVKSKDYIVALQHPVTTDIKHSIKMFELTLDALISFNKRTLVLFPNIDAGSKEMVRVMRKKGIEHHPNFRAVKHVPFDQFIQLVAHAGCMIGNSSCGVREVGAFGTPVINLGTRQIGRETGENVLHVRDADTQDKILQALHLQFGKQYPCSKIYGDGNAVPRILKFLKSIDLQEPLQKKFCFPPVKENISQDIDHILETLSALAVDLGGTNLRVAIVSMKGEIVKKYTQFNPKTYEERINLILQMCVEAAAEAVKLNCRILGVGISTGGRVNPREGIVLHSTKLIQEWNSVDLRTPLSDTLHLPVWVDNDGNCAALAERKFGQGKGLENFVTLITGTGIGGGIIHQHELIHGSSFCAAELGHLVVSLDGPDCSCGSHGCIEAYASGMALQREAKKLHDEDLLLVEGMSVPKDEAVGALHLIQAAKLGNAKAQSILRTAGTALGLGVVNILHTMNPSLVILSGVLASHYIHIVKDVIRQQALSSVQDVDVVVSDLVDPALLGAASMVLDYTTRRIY
# Summary of the method: as §1
smiles,measurement,setting,value
Nc1ncnc2c1ncn2[C@@H]1O[C@H](COP(=O)(O)OP(=O)(O)OP(=O)(O)O)[C@@H](O)[C@H]1O [adenosine triphosphate],NP40-soluble protein abundance,[1]; concentration: 6mM,1.03 ± 0.12
same,NP40-soluble protein abundance,[1]; concentration: 8mM,1.1 ± 0.075
same,NP40-soluble protein abundance,[1]; concentration: 10mM,1.12 ± 0.046
same,NP40-soluble protein abundance,UniProt Q9ULD0; concentration: 1mM,1.15 ± 0.1
same,NP40-soluble protein abundance,UniProt Q9ULD0; concentration: 2mM,1.12 ± 0.15
same,NP40-soluble protein abundance,UniProt Q9ULD0; concentration: 4mM,1.05 ± 0.12
same,NP40-soluble protein abundance,UniProt Q9ULD0; concentration: 6mM,1.08 ± 0.22
same,NP40-soluble protein abundance,UniProt Q9ULD0; concentration: 8mM,1.11 ± 0.19
same,NP40-soluble protein abundance,UniProt Q9ULD0; concentration: 10mM,1.1 ± 0.2
same,NP40-soluble protein abundance,[2]; concentration: 1mM,1.01 ± 0.02
same,NP40-soluble protein abundance,[2]; concentration: 2mM,1.01 ± 0.048
same,NP40-soluble protein abundance,[2]; concentration: 4mM,0.995 ± 0.015
same,NP40-soluble protein abundance,[2]; concentration: 6mM,1.06 ± 0.081
same,NP40-soluble protein abundance,[2]; concentration: 8mM,0.9963 ± 0.0076
same,NP40-soluble protein abundance,[2]; concentration: 10mM,0.9865 ± 0.0087
same,NP40-soluble protein abundance,[3]; concentration: 1mM,0.992 ± 0.064
same,NP40-soluble protein abundance,[3]; concentration: 2mM,0.981 ± 0.065
same,NP40-soluble protein abundance,[3]; concentration: 4mM,0.973 ± 0.032
same,NP40-soluble protein abundance,[3]; concentration: 6mM,0.899 ± 0.045
same,NP40-soluble protein abundance,[3]; concentration: 8mM,0.97 ± 0.03
same,NP40-soluble protein abundance,[3]; concentration: 10mM,0.947 ± 0.058

# Part of the list above, reformatted.
smiles	measurement	setting	value
Nc1ncnc2c1ncn2[C@@H]1O[C@H](COP(=O)(O)OP(=O)(O)OP(=O)(O)O)[C@@H](O)[C@H]1O [adenosine triphosphate]	NP40-soluble protein abundance	[2]; concentration: 2mM	1.01 ± 0.048
same	NP40-soluble protein abundance	[2]; concentration: 4mM	0.995 ± 0.015
same	NP40-soluble protein abundance	[2]; concentration: 6mM	1.06 ± 0.081
same	NP40-soluble protein abundance	[2]; concentration: 8mM	0.9963 ± 0.0076
same	NP40-soluble protein abundance	[2]; concentration: 10mM	0.9865 ± 0.0087
